From patent US12409138B2, “Nanoparticles and nanogel drug compositions for treatment of age-related macular degeneration” (University of South Florida, priority 2019, dated 2025)
For at least one compound, name, drawing or mass did not settle the structure.

Assay: In vitro drug release study by dialysis
Type: physicochemical
Description: In vitro drug release study. The in vitro drug release study for SM from nanoparticles and nanoparticles incorporated thermo-reversible gel were compared with plain drug solution and was studied at 37°±0.5° C. In short, drug solution in DMSO, SM-NPs and SM-NP Gel having equivalent quantity of SM (1 mg/ml) were placed in dialysis tubes (MWCO 10 KDa) and sealed tightly by using dialysis closures. Then, the dialysis tubes were immersed in 20 ml of PBS (pH 7.4) as a release medium comprising of 0.1% Tween 80 (v/v). Release medium was allowed to stir at 150 rpm and the 0.5 mL of samples were withdrawn at 0.25, 0.5, 1, 2, 4, 6, 12, 24, 48, 72, 96, 120, 144 and 168 h. The volumes were made up with fresh release medium after each sampling. The concentration of SM in a sample was determined by UV spectroscopy at 432 nm after dilution with methanol in ratio of 1:10. For all the formulations, in vitro release tests were carried out in triplicate and results were described as cumulative quantity of drug released at each point of time.

## CC1(C)O[C@@H]2C[C@H]3[C@@H]4CCC5=CC(=O)C=C[C@]5(C)[C@@]4(F)[C@@H](O)C[C@]3(C)[C@]2(C(=O)CO)O1 [TA solution, triamcinolone acetonide]
  Time to complete release: ≤ 24 h
